Measurements reported in article PMC6104973.
These are yes or no findings as the source states them, for the method shown.

Protein sequences, listed by entry. Tags and fused reporters are not part of them. Lines headed by an entry give the natural chain unless they say otherwise; changes in a name come on top. Chains listed by the source or under a name are the forms on record and can include a tag or linker.
ALX180 (P78324, form named): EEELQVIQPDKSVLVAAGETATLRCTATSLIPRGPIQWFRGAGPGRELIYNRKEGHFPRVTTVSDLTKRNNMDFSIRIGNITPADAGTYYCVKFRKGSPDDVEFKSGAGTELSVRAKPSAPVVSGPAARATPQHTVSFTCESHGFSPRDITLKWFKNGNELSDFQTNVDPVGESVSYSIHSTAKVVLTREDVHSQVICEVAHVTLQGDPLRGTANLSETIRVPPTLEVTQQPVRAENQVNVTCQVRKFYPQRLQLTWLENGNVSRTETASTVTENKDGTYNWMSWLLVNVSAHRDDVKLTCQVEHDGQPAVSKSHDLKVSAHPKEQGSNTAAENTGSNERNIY

Biological target: T1, mouse CD47 on cells (mouse (endogenous in mouse tumor cell lines)) (UniProt Q61735)
T1 sequence: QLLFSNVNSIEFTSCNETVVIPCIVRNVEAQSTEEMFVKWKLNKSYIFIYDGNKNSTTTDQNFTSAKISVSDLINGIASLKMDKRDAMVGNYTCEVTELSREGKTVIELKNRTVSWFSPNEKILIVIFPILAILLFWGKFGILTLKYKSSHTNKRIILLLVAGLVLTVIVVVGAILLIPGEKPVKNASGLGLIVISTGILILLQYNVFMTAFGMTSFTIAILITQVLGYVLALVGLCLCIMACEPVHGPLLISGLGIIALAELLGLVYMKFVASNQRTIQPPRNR
Assay: flow cytometry on cells; Alexa Fluor 647-labeled protein at 20 nM on human and mouse tumor cell lines, 15 minutes on ice, with human Fc block and human AB serum; only the binder purified

**Q.** With “ALX180 (from UniProt P78324 31-373) (Fc fusion)” as the substance, how does the binding read?
**A.** Its binding is “no binding (tested: 20 nM)”.
